Assay results published in paper PMC12670160, “A drug-repurposing screen of FDA- and EMA-approved drugs identifies two NF-κB inhibitors active against eumycetoma” (Journal of Antimicrobial Chemotherapy, 2025).
Counter-ions that a name gives are not always drawn. Hit rate of the full screen: of about 5,300 compounds, about 130 (2.5%) showed an effect of 50% or more. Some of the results follow.

The molecules below were run on M. mycetomatis strain mm55. Details: primary screen, metabolic activity vs growth control; 96 h, 2 µM; inhibitor.

SMILES | % viability
CCN(CC)C(=O)C1(c2ccccc2)CC1CN (centres unmarked) [ONC0004259, milnacipran hydrochloride] | 81.75%
CN1CCC2=C(C1)c1ccccc1Cc1ccccc12 [ONC0005445, setiptiline] | 113.1%
C[C@]12C=CC(=O)N[C@@H]1CC[C@@H]1[C@@H]2CC[C@]2(C)[C@@H](C(=O)Nc3cc(C(F)(F)F)ccc3C(F)(F)F)CC[C@@H]12 [ONC0004626, dutasteride] | 85.92%
O=C1[C@H]2CCCC[C@H]2C(=O)N1CCCCN1CCN(c2nsc3ccccc23)CC1 [ONC0003349, perospirone] | 82.07%
CC(C)c1cccc2c(-c3ccccc3)cc(-c3ccc(-c4ccc(C(=O)O)cc4)[nH]3)nc12 [ONC0001488, er50891] | 51.81%
CO[C@H]1/C=C/O[C@@]2(C)Oc3c(C)c(O)c4c(O)c(c5c(nc6cc(C)ccn65)c4c3C2=O)NC(=O)/C(C)=C\C=C\[C@H](C)[C@H](O)[C@@H](C)[C@@H](O)[C@@H](C)[C@H](OC(C)=O)[C@@H]1C [ONC0004209, rifaximin] | 120.7%
Cc1ncc(CO)c(C=O)c1O [ONC0003255, pyridoxal] | 96.31%
CCNCCS(=O)(=O)NC[C@@]1(c2ccccc2)SC(NC(=O)C(C)(C)C)=NN1C(=O)C(C)(C)C [ONC0000804, litronesib] | 77.28%
CCN(CC)c1ccc(/C=N/NC(=O)c2ccc(O)cc2)cc1 [ONC0002533, dy131] | 70.08%
COC(=O)[C@H](CC(C)C)NC(=O)[C@H](N)CC(C)C [ONC0003694, leuleuomehcl] | 68.85%
Nc1ccn([C@H]2C[C@H](O)[C@@H](CO)O2)c(=O)n1 [ONC0001142, 2deoxycytidine hydrochloride] | 61.43%
O=C(O)CC(=O)C(=O)O [ONC0005597, oxaloacetate] | 79.02%
O=C(O)CN(CCN(CC(=O)O)CC(=O)O)CC(=O)O [ONC0004164, ethylenediamine tetracetic acid] | 70.32%
CC(C)(O)CC[C@@H](O)[C@](C)(O)[C@@H]1CC[C@@]2(O)C3=CC(=O)[C@@H]4C[C@@H](O)[C@@H](O)C[C@]4(C)[C@@H]3CC[C@]12C [ONC0005208, 20hydroxyecdysone] | 116.5%
COc1cc(-c2ncn(/C=C\C(=O)OC(C)C)n2)cc(C(F)(F)F)c1 [ONC0005191, kpt185] | 76.75%
COc1ccc(-c2nc(N3CCOCC3)c3sc(CN(C)c4ncc(C(=O)NO)cn4)cc3n2)cn1 [ONC0004323, cudc907] | 140.8%
CCCNC(=O)NS(=O)(=O)c1ccc(Cl)cc1 [ONC0000328, chlorpropamide] | 70.17%
CCN(CC)C(C)CN1c2ccccc2Sc2ccccc21 (centres unmarked) [ONC0005329, profenamine] | 105.4%
CC1CS(=O)(=O)CCN1N=Cc1ccc([N+](=O)[O-])o1 (centres unmarked) [ONC0002935, nifurtimox] | 70.95%
COc1ccc(Cl)c(Nc2nc3ccccc3nc2NS(=O)(=O)c2cccc(NC(=O)C(C)(C)N)c2)c1 [ONC0000795, pilaralisib] | 73.55%

An excerpt from above in order of number of heavy atoms, ascending:
SMILES | % viability
Cc1ncc(CO)c(C=O)c1O [ONC0003255, pyridoxal] | 96.31%
CC1CS(=O)(=O)CCN1N=Cc1ccc([N+](=O)[O-])o1 (centres unmarked) [ONC0002935, nifurtimox] | 70.95%
CC(C)c1cccc2c(-c3ccccc3)cc(-c3ccc(-c4ccc(C(=O)O)cc4)[nH]3)nc12 [ONC0001488, er50891] | 51.81%

Remaining list, next part

SMILES | % viability
CN1CCN(CCc2ccc(Cl)c(Cl)c2)CC1 [ONC0000113, bd1063] | 72.11%
CC(=O)O[C@]1(C(C)=O)CC[C@H]2[C@@H]3C=C(Cl)C4=CC(=O)CC[C@]4(C)[C@H]3CC[C@@]21C [ONC0004202, chlormadinone acetate] | 112.8%
C=CCN(C)CCCCCCOc1ccc(C(=O)c2ccc(Br)cc2)c(F)c1 [ONC0001825, ro 488071 fumarate] | 29.93%
Cc1cnc(Nc2ccc(OCCN3CCCC3)cc2)nc1Nc1cccc(S(=O)(=O)NC(C)(C)C)c1 [ONC0004342, fedratinib sar302503 tg101348] | 76.05%
Cn1ncnc1[C@H]1c2n[nH]c(=O)c3cc(F)cc(c23)N[C@@H]1c1ccc(F)cc1 [ONC0004437, talazoparib bmn 673] | 134.3%
c1ccc(Cn2c(N3CCNCC3)nc3ccccc32)cc1 [ONC0003649, lerisetron] | 53.42%
CC(C)Oc1ccc(-c2cnc3c(-c4ccnc5ccccc45)cnn3c2)cc1 [ONC0005132, dmh1] | 98.5%
Cc1nc2c([nH]1)-c1ccccc1N(C(=O)c1ccc(NC(=O)c3ccccc3-c3ccccc3)cc1)CC2 [ONC0004899, conivaptan hcl vaprisol] | 94.49%
CC1=C(C)C(=O)C(C(CCCCCC(=O)O)c2ccccc2)=C(C)C1=O (centres unmarked) [ONC0001282, seratrodast] | 73.28%
Cc1ccc2c(c1)C(=O)[C@]1(O)CCN(c3ccccc3)C1=N2 [ONC0005093, blebbistatin] | 85.85%
COc1ccc2c(Oc3ccc(NC(=O)c4c(C)n(CC(C)(C)O)n(-c5ccccc5)c4=O)nc3)ccnc2c1 [ONC0004459, amg458] | 144.8%
COc1c(C)cnc(Cn2cnc3c(Cl)nc(N)nc32)c1C [ONC0000029, biib021] | 96.14%
O=c1[nH]c2ccccc2c(=O)n1CCCN1CCN(c2ccccc2)CC1 [ONC0002331, pelanserin] | 57.27%
CC(C)CCNC(=O)[C@H](CC(C)C)NC(=O)[C@H]1O[C@@H]1C(=O)O [ONC0005165, loxistatin acid e64c] | 67.27%
NCCCCCC(=O)O [ONC0003178, aminocaproic acid hydrochloride] | 100.5%
CCCCCCCCCCCCCCCCCCCCCC(=O)O [ONC0003462, docosanoic acid] | 69.23%
c1ccc2c(CCNc3ccc(Nc4ccncc4)cc3)c[nH]c2c1 [ONC0004895, jnj 26854165 serdemetan] | 144.5%
Cc1csc(-c2nnc(Nc3ccc(Oc4ncccc4-c4ccnc(N)n4)cc3)c3ccccc23)c1 [ONC0004333, amg 900] | 137.6%
CC(NC(C)(C)C)C(=O)c1cccc(Cl)c1 (centres unmarked) [ONC0002366, bupropion] | 81.3%
N#C/C(=C\c1ccc(O)c(O)c1)C(=O)NCCCCc1ccccc1 [ONC0000130, ag556] | 86.17%

SMILES | % viability
COC(=O)NC(C)CNc1nccc(-c2cn(C(C)C)nc2-c2cc(Cl)cc(NS(C)(=O)=O)c2F)n1 (centres unmarked) [ONC0004371, encorafenib lgx818] | 101%
NC(=O)C[C@H](N)C(=O)O [ONC0002130, lasparagine] | 76.47%
C#Cc1cncc([C@@H]2CCCN2C)c1 [ONC0000114, altinicline] | 86.96%
NC1(C(=O)O)CC1 [ONC0001943, 1aminocyclopropanecarboxylic acid] | 104.2%
Cc1noc(NS(=O)(=O)c2cccc3c(N(C)C)cccc23)c1C [ONC0001555, bms182874] | 108.5%
CCN(CC)C(=O)c1ccc(O)c(OC)c1 [ONC0005425, ethamivan] | 72.26%
Clc1ccc(N/N=C(\c2ccccc2)c2ccccn2)nc1 [ONC0004403, jib04 nsc693627] | 57.7%
O=C(c1ccc(F)cc1)C1CCN(CCn2c(=O)[nH]c3ccccc3c2=O)CC1 [ONC0004156, ketanserin] | 94.97%
CCCCCCCC/C=C/CCCCCCCC(=O)OC[C@H]1O[C@@H](n2ccc(N)nc2=O)C(F)(F)[C@@H]1O [ONC0000902, gemcitabine elaidate] | 79.09%
CC(=O)O[C@@H]1CC[C@@]2(C)[C@@H](CC[C@]3(C)[C@@H]2C(=O)C=C2[C@@H]4[C@@H](C)[C@H](C)CC[C@]4(C)CC[C@]23C)[C@@]1(C)C(=O)O [ONC0002083, akba] | 67.6%
NC(=O)Nc1cc(-c2cccc(F)c2)sc1C(=O)N[C@H]1CCCNC1 [ONC0001254, azd7762] | 80.73%
Nc1ncnc2c1ncn2[C@@H]1O[C@H](COP(=O)(O)OP(=O)(O)OP(=O)(O)OP(=O)(O)OC[C@H]2O[C@@H](n3cnc4c(N)ncnc43)C(O)C2O)C(O)C1O (some centres unmarked) [ONC0001970, p1p4diadenosine5tetraphosphate ammonium salt] | 87.03%
C[C@H]1[C@H](C)CC[C@]2(C(=O)O)CC[C@]3(C)C(=CC[C@@H]4[C@@]5(C)CC[C@H](O)C(C)(C)[C@@H]5CC[C@]43C)[C@H]12 [ONC0005508, ursolicacid] | 146.9%
C[Se]C[C@H](N)C(=O)O [ONC0002605, semethylselenolcysteine] | 72.63%
O=C(O)[C@@H]1C[C@@H](O)CN1 [ONC0004124, trans4hydroxylproline] | 95.08%
C[C@H](N)C(=O)N[C@@]1(C(=O)O)C[C@@H](Sc2nnc[nH]2)[C@H]2[C@H](C(=O)O)[C@H]21 [ONC0000921, ly2979165] | 66.28%
CC(=O)N[C@@H](CSC/C=C(\C)CC/C=C(\C)CCC=C(C)C)C(=O)O [ONC0003861, acetylfarnesylcysteine] | 77.21%
Cc1nc2c(-c3cnc(N)nc3)nc(N3CCOCC3)nc2n1C(C)C [ONC0001346, vs5584] | 70.29%
Nc1nccc(Oc2ccc(NC(=O)c3c[nH]cc(-c4ccc(F)cc4)c3=O)cc2F)c1Cl [ONC0004988, bms 794833] | 97.21%
